The values below are quoted from earlier work in US12150919B2 (priority 2023, dated 2024).

The conditions of the series: water at acidic and neutral pH; cited from earlier work.

On to `COc1cc(/C=C/C(=O)CC(=O)/C=C/c2ccc(O)c(OC)c2)ccc1O` [Curcumin, (1E,6E)-1,7-bis(4-hydroxy-3′-methoxyphenyl)-1,6-heptadiene-3,5-dione], for which the solubility in water is below 0.1 µg/mL.
